# Measured values reported in the supplement of paper PMC3334620.
# Over roughly 33,000 sequences, “E-score (-0.5 to 0.5)” has its median near -0.0059; the highest 2% begin near 0.26. Some of the results follow.
# Biological target: T1, Cin5 (UniProt P40917)
# T1 sequence: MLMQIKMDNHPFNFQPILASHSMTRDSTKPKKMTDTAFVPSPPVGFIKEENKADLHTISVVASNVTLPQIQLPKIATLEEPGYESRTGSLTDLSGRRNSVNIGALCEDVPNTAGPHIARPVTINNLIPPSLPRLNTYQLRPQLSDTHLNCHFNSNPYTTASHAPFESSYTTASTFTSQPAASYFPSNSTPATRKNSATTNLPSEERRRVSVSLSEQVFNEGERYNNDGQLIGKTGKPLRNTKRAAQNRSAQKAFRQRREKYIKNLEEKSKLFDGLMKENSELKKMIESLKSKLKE
# Assay: PBM E-score (8-mer binding enrichment) (E-score (-0.5 to 0.5)); higher = stronger / more preferred TF binding
# Settings: protein concentration: 100 nM; construct: GST-full length
# Procedure, shortened: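 Detection of bound protein used fluorescent anti-GST, with scans normalised by masliner. The proteins were GST-tagged yeast transcription factors applied at about 100-200 nM to universal all-10-mer Agilent arrays made double-stranded by primer extension. Each ungapped eight-base word, pooled with its reverse complement, was scored with an E-score from the Universal PBM Analysis Suite.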
row,Sequence,PBM E-score
1,CGACGACA,-0.0882
2,AGGAGTCA,-0.0658
3,ACCACGGC,-0.136
4,CGTTCGAG,0.0512
5,GGAAGAAC,0.148
6,AATGTCGA,0.16
7,ACACCCCA,-0.0685
8,CAACAGTG,0.0305
9,ACTATGAG,0.0206
10,CGATTGAG,-0.047
11,GAATTATA,0.101
12,CTACTACA,0.173
13,ACGACTAC,-0.0961
14,GCTGTGAC,-0.151
15,TCTGTTCA,0.135
16,CTATAGGA,-0.133
17,ATCCTCCA,-0.0549
18,GGAAAGAC,-0.209
19,AGTCCAAG,-0.144
20,TCTATTAA,0.109
21,ATAAAAGG,-0.158
22,GAAATTTA,0.0219

# Fetched one by one from the entries so far, 5 records:
row,Sequence,PBM E-score
18,GGAAAGAC,-0.209
10,CGATTGAG,-0.047
9,ACTATGAG,0.0206
16,CTATAGGA,-0.133
7,ACACCCCA,-0.0685

# (next part)

row,Sequence,PBM E-score
1,GCGACCTA,-0.0518
2,AGGACAAC,-0.126
3,CCTAAGCG,-0.0324
4,GCTGGTGA,0.0963
5,GCAATACC,0.0147
6,CACGAAAC,0.0711
7,GGCAAAAC,-0.0991
8,CCGTGCCA,-0.178
9,CCGACGCG,-0.0277
10,TAGCAGCA,-0.131
11,ACATGCTC,-0.0236
12,ATATAAGC,0.24
13,TAATGGGA,-0.037
14,CCTCCAAC,0.01
15,CACAGAAG,-0.0708
16,ACGATATA,-0.00476
17,TCATCCGA,0.15
18,CAAGGAGA,-0.25
19,AAAACGAT,0.18
20,AGCGACAT,0.0843
21,CCGAACCG,-0.189
22,ATTATACA,0.123

row,Sequence,PBM E-score
1,ACGCTCGG,0.0146
2,AACGCCCT,-0.221
3,CGGAGGAG,-0.182
4,CAACAGCG,-0.0893
5,CAAATCGC,-0.175
6,GAGGGACC,-0.31
7,CTTAAGTC,-0.00578
8,GGGGCCAC,-0.282
9,GCCGGCAC,0.106
10,GGATGCAC,-0.103
11,AGTTGGTC,0.0229
12,ATTCGAAA,0.226
13,ACATATAA,0.237
14,GTTAGCCA,-0.00576
15,AACTACGT,0.0155
16,ATTACAGG,0.244
17,ATGACAGA,0.0914
18,ACGTAACA,0.214
19,ATCTAAGA,0.0536
20,GGACCGAA,0.0361
21,ACGGCCGT,0.107
22,AAGGGAAC,-0.247

row,Sequence,PBM E-score
1,ATGTGTGC,-0.0763
2,CTTGCGGA,-0.128
3,TAGTGCAA,0.172
4,CATAACGA,0.0898
5,CGCAATAA,0.221
6,GTGGTAAC,-0.0191
7,AGCGCTTG,0.027
8,CGTCAAAA,0.122
9,ATATGGAA,0.0442
10,CATAGTCG,0.0574
11,CTGGTAGC,-0.111
12,ACCCTCCG,-0.154
13,CGTATTGA,0.0973
14,AAGAATGC,0.131
15,ACCGGACG,-0.00878
16,ATATCTTG,0.074
17,GGGCACTA,-0.122
18,ACTATAAA,0.146
19,AATCGACG,0.00891
20,AACAACAG,-0.126
21,CAAGGACA,-0.148
22,AATCTCGT,0.0924

row,Sequence,PBM E-score
1,CCTCACAA,0.00087
2,TAAAAATA,0.152
3,ATGAAGTA,0.2
4,AGTTCAGC,-0.169
5,GTCGTCAA,-0.0649
6,CGATTGGA,0.0246
7,GAATATAC,0.195
8,AGAGTGTC,0.146
9,CAGGTCCC,-0.187
10,AGCACATG,0.166
11,GTATAGTA,0.169
12,ATATGCAT,0.00063
13,CTCAAAGA,-0.114
14,ACAGAAAG,0.102
15,CTTAATAA,0.267
16,GAGACAAA,-0.148
17,AACAGTGC,0.00204
18,CACGAGTG,-0.186
19,GAAATAAC,0.128
20,ACCTTTAC,0.0225
21,GGCGGTGA,-0.0013
